# Percent effect of library compounds

Sequences of proteins named here, by UniProt entry; tags and fusion partners are left off. Residues count along the entry.
UniProt P9WFT3, whole entry: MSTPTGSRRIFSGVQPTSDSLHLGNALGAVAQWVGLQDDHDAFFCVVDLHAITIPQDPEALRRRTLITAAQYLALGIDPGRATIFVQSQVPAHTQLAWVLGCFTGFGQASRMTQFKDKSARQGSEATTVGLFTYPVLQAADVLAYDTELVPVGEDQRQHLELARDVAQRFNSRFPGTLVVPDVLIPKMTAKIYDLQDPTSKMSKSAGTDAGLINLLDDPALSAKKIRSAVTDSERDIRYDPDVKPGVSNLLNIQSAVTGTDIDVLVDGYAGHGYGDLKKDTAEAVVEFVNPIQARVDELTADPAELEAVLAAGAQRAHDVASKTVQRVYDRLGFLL
UniProt P9WPC5, whole entry: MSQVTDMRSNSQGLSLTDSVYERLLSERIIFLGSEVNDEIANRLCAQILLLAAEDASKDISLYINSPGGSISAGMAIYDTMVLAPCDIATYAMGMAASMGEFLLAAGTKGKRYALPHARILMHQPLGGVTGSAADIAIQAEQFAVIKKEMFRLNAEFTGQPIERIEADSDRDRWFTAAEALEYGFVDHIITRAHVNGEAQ
UniProt P9WPC3, whole entry partner: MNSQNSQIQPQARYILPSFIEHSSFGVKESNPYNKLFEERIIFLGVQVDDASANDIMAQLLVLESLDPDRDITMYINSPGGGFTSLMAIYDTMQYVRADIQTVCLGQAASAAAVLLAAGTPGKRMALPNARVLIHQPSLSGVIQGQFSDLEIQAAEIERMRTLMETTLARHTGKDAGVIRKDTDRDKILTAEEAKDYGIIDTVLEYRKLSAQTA
UniProt I6X8D2, whole entry: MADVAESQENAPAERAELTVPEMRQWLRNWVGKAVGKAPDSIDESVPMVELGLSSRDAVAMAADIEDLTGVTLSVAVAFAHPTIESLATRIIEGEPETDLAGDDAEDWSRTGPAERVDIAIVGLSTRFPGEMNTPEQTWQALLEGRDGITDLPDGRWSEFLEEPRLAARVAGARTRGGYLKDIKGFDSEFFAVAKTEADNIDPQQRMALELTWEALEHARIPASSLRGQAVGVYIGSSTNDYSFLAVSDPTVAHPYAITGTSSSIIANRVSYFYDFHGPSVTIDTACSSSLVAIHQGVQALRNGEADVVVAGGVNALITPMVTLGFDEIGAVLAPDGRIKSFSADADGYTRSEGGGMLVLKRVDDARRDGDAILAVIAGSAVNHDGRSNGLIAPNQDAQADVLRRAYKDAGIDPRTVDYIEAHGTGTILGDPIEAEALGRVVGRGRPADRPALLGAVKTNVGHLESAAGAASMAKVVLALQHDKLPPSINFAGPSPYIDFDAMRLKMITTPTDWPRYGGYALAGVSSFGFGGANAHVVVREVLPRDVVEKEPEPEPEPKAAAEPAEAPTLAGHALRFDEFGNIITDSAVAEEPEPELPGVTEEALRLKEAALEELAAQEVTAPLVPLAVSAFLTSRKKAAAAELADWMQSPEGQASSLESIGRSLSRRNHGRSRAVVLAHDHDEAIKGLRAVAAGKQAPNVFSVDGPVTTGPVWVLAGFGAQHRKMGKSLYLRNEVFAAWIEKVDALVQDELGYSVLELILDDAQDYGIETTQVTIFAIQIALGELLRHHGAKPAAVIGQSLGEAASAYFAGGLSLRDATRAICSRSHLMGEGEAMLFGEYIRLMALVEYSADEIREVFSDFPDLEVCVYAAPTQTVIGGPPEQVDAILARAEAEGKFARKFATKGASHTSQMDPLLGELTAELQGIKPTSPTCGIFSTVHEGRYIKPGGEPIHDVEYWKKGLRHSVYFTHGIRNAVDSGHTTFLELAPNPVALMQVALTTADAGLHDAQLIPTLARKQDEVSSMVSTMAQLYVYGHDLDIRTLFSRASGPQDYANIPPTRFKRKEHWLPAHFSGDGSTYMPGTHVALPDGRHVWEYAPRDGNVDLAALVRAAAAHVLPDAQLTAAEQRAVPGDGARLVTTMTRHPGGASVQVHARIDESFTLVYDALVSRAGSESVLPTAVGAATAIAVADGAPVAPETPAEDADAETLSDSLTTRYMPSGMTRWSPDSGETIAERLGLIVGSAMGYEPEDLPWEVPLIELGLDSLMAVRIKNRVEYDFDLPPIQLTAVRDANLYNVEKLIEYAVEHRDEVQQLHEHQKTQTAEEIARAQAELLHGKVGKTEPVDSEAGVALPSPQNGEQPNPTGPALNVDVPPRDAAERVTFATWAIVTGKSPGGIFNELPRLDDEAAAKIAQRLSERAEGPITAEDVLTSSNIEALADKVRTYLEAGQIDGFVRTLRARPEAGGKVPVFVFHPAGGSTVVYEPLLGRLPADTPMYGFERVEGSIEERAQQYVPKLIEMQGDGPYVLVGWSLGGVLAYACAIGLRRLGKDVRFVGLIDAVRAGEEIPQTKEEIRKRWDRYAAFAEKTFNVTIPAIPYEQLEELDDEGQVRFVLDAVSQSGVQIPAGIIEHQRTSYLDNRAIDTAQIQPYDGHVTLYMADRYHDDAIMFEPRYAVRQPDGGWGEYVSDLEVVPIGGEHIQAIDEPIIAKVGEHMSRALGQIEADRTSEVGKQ
UniProt Q8IDJ8, 1-583: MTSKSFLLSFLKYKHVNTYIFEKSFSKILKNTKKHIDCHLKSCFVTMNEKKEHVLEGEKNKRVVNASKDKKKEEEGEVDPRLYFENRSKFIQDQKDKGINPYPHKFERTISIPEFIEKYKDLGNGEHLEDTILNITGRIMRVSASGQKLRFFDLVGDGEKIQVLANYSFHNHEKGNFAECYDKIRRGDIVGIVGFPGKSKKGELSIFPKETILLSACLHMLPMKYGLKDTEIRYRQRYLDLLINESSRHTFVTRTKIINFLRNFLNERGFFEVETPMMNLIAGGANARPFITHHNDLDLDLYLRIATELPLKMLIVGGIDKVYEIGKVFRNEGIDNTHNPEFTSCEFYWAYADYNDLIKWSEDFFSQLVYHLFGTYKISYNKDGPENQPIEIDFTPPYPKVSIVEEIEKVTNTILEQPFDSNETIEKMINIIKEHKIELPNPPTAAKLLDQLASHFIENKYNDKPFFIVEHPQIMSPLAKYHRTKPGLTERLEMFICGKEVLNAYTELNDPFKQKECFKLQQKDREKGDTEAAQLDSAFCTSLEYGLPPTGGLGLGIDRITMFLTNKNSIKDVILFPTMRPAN

The values are deposited in ChEMBL (CHEMBL3988442, “University of Dundee, Small-Polar-MMV Screening Library” (2021)).

Values are the deposited “Percent Effect”, in %. The record does not define 0% and 100%; most values in the screen are far below 50% and negative numbers occur (in some assays of this library far below -100). The compounds are a random part of those screened.

A: 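Enzyme assay of tryptophanyl-tRNA synthetase; the read-out is not stated. Target: Tryptophan-tRNA ligase, Mycobacterium tuberculosis (UniProt P9WFT3). Concentration: 10 µM. Direction is not recorded; retested compounds ran higher, which suggests that high means inhibition. Size under these conditions: about 65,000 compounds, about 64 of them at 50% or above in at least one test.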
B: 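Protease assay of ClpP1P2, read by the AMC dye that it sets free. Target: ClpP1P2, Mycobacterium tuberculosis (UniProt P9WPC5 and UniProt P9WPC3). Compounds at 50 µM. Higher reads as stronger inhibition, judged from the few compounds that gave an IC50. Most other retested compounds had strongly negative values. About 69,000 compounds were tested under these conditions; 0.015% (about 10) showed 50% or more at least once.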
C: 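Enzyme assay of the thioesterase domain of polyketide synthase 13; the read-out is not stated. Target: Polyketide synthase Pks13, Mycobacterium tuberculosis (UniProt I6X8D2). Tested at 30 µM. The record gives no direction; the compounds picked for IC50 retests had high values, so higher reads as stronger inhibition. Size under these conditions: about 67,000 compounds, about 300 of them at 50% or above in at least one test.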
D: 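Lysine-tRNA ligase, Plasmodium falciparum 3D7 (UniProt Q8IDJ8). Enzyme assay of the cytosolic lysyl-tRNA synthetase in 384-well plates, read by luminescence. Tested at 30 µM. Direction is inferred from only a few compounds that gave an IC50; most scored high, so higher reads as stronger inhibition. About 69,000 compounds were tested under these conditions; 0.071% (about 49) showed 50% or more at least once.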

{"compound": "COc1cccc(Oc2nc(C)c(C(=O)O)s2)c1OC", "A": 6.515, "B": -12.37, "C": -11.77, "D": 1.437}
{"compound": "O=C(c1cccnc1)N(CCO)Cc1cc(Br)ccc1F", "A": -4.157, "B": 13.18, "C": -15.4, "D": -0.822}
{"compound": "CN(C)c1ccccc1CN1CCC(N2CCCC2=O)CC1", "A": 10.07, "B": -5.151, "C": -32.13, "D": -3.407}
{"compound": "CC(=O)N1CCC(N2CCOC[C@H]2c2nc(C(C)(C)C)c[nH]2)CC1", "A": -1.138, "B": -8.634, "C": -27.79, "D": 2.749}
{"compound": "CC(C)CC(=O)N1CC[C@@H]2[C@H](CC1)N(Cc1cccnc1)CCS2(=O)=O", "A": -8.621, "B": -10.01, "C": -12, "D": -0.3241}
{"compound": "COc1ccc(C(=O)NS(C)(=O)=O)cc1-c1ccccc1", "A": -4.263, "B": 5.937, "C": -9.143, "D": 8.033}
{"compound": "CC(C)c1ccc(CCC(=O)N2CCOCC2c2ncon2)cc1", "stereo": "stereo not given", "A": -0.4132, "B": -14.62, "C": -15.26, "D": -0.1582}
{"compound": "CSc1ncc(C(=O)NCCn2nccc2C)cn1", "A": -7.187, "B": -28.3, "C": 2.406, "D": 0.1423}
{"compound": "O=C(c1cccn2ccnc12)N1CCCN(c2cccnn2)CC1", "A": -1.798, "B": 1.707, "C": -3.343, "D": -1.324}
{"compound": "c1ccc(CCN2CCCC2c2cncc(Nc3nncs3)n2)cc1", "stereo": "stereo not given", "A": 13.52, "B": 8.309, "D": 0.6247}
{"compound": "O=C(CCn1cncn1)NC1CCc2nccn2C1", "stereo": "stereo not given", "A": -7.41, "B": -17.43, "C": -12.43, "D": -0.3444}
{"compound": "CC(O)CN1CCN(C(=O)c2ccnc(N(C)C)c2)CC1", "stereo": "stereo not given", "A": 0.7936, "B": -0.06446, "C": -14.15, "D": 3.472}
{"compound": "Cc1[nH]ccc1C(=O)N1CCC2(CC1)c1nc[nH]c1CCN2CC(C)C", "A": 1.065, "B": -9.634, "D": 2.572}
{"compound": "Cc1cncc(NCC(O)c2ccco2)n1", "stereo": "stereo not given", "A": 1.001, "B": -8.554, "C": -23.36, "D": 1.833}
{"compound": "CC(C)NC(=O)N1CC[C@@H]2[C@@H]1CC(=O)N2Cc1cccnc1", "A": 1.744, "B": 0.7631, "C": -24.94, "D": 2.161}
{"compound": "Cc1cc(O)n(-c2ccccc2Cl)c(=O)c1C#N", "A": -3.518, "B": 10.23, "C": -5.503, "D": 4.171}
{"compound": "Cc1ccccc1CCC1CCCN(Cc2c(C)[nH]c(=O)[nH]c2=O)C1", "stereo": "stereo not given", "A": -4.134, "B": -0.6843, "C": -33.48, "D": 6.24}
{"compound": "CC(=O)N1C[C@@H](c2ccsc2)[C@@H]2CN(Cc3ccccc3Cl)CC[C@@H]21", "B": -17.99, "C": 9.761, "D": 2.589}
{"compound": "C[C@@H]1CN(C2(C(=O)N(C)C)Cc3ccccc3C2)C[C@H](C)O1", "A": -1.526, "B": -0.3981, "C": -21.54, "D": 4.294}
{"compound": "Cc1n[nH]c(C2CN(CCc3cccs3)CCO2)n1", "stereo": "stereo not given", "A": 10.05, "B": -7.559, "C": -18.16, "D": -0.2546}
{"compound": "CN(C)CCN(C)C1CCN(C(C(=O)O)c2ccc(F)c(Cl)c2)CC1", "stereo": "stereo not given", "A": -2.662, "B": 19.72, "C": -27.93, "D": -0.9547}
{"compound": "Cc1cn2c(n1)CCC(NC(=O)c1cc[nH]n1)C2", "stereo": "stereo not given", "A": -8.88, "B": -16.8, "C": -2.818, "D": -0.9591}
{"compound": "O=C(c1ccncc1)N1CCN(C(=O)c2coc3ccccc23)CC1", "A": 0.4128, "B": 0.2293, "C": -34.78, "D": 7.827}
{"compound": "CC(C)C(O)CCNC(=O)Nc1cc(F)ccc1-n1cccn1", "stereo": "stereo not given", "A": -1.56, "B": -9.314, "C": 7.476, "D": -0.4472}
{"compound": "CS(=O)(=O)N1CCC2(COCc3cnc(-c4ccccc4)nc32)C1", "stereo": "stereo not given", "A": -2.972, "B": -3.713, "C": -40.29, "D": 7.589}
{"compound": "Cc1cc(F)ccc1S(=O)(=O)N1CCN(C)c2ccncc21", "A": -1.917, "B": -4.406, "C": -98.57, "D": 4.141}
{"compound": "Cc1ccc(C(=O)NC2CCN(Cc3cccc4c3OCCO4)CC2)s1", "A": -1.661, "B": 8.262, "C": -17.69, "D": 0.006727}
{"compound": "CCCN1CCCC2(CCN(C(=O)CCCn3cncn3)C2)C1=O", "stereo": "stereo not given", "A": 0.243, "B": 3.107, "C": -10.45, "D": 8.85}
{"compound": "COc1cccc(OCC2CCCN(C(=O)c3cnn(C)c3)C2)c1", "stereo": "stereo not given", "A": 6.02, "B": -20.01, "C": 12.12, "D": -8.584}

4 of the entries, repeated:

compound	A	B	C	D
Cc1cc(F)ccc1S(=O)(=O)N1CCN(C)c2ccncc21	-1.917	-4.406	-98.57	4.141
CC(C)NC(=O)N1CC[C@@H]2[C@@H]1CC(=O)N2Cc1cccnc1	1.744	0.7631	-24.94	2.161
COc1cccc(OCC2CCCN(C(=O)c3cnn(C)c3)C2)c1 (stereo not given)	6.02	-20.01	12.12	-8.584
CC(C)c1ccc(CCC(=O)N2CCOCC2c2ncon2)cc1 (stereo not given)	-0.4132	-14.62	-15.26	-0.1582